{
  "source": "patent US20160136091A1",
  "about": "“Orally Disintegrating Tablet” (SANWA KAGAKU KENKYUSHO CO., LTD., priority 2013, published 2016)",
  "origin": "cited, not measured here",
  "settings": "20+5° C.",
  "note": "At least one compound was matched to its structure with a doubt left.",
  "data": [
    {"smiles": "COC(=O)C1=C(C)NC(C)=C(C(=O)OC)C1c1ccccc1[N+](=O)[O-]", "note": "[nifedipine]", "values": [
      {"measurement": "Amount of water required to dissolve 1 g", "value": "at least 10,000 mL"}
    ]}
  ]
}
